Experimental data reported in the supplement of paper PMC12578635.
The other results are listed elsewhere or left out. No stated cut-off is given here; in the data, active = 150% or more and inactive = the rest. Repeats are few or missing, and single values can be far off.

Tested on: Staphylococcus aureus JE2-lux inside RAW 264.7 macrophages
Assay: intracellular bacterial bioluminescence relative to DMSO vehicle; higher = higher intracellular bacterial metabolic activity
Conditions: 10 µM; treatment time 4 h; gentamicin 50 µg/ml

Intracellular bacterial bioluminescence, inactive:
CCn1nc(C)c2ccnc(N3CCC(C(=O)N4CCN(C5CCN(C)CC5)CC4)CC3)c21 113%, Cc1ccc(C(=O)Nc2ccccc2-c2nc3ccccc3[nH]c2=O)cc1 94%, CCOC(=O)c1cc(NC(=O)CSc2nnc3cc(C)c4ccccc4n23)cc(C(=O)OCC)c1 80.3%, C=CCNC(CC(=O)Nc1ccc(O)cc1C)C(=O)O (configuration not stated) 111%, O=C(NCc1c(F)cccc1F)C(=O)Nc1cc(F)ccc1F 81.5%, O=C(N1CCc2nc(N3CCCC3)[nH]c(=O)c2C1)C1(c2ccc(Cl)cc2)CCC1 98.3%, COc1ccc(NS(=O)(=O)c2cn(C)nc2C)cc1NC(=O)CN1CCCC1 107%, Cc1ccc(N(C(=O)c2csnn2)C(C(=O)NC(C)(C)C)c2ccncc2)cc1C (configuration not stated) 109%, Cc1cccn2c(=O)c(/C=C(\C#N)C(=O)NC3CCCC3)c(Oc3ccccc3F)nc12 86.5%, CCc1ccc(C2NC(=O)NC3=C2C(=O)CCC3)cc1 (configuration not stated) 104%, COc1cc(Nc2ncnc3c(-c4ccccc4)noc23)cc(OC)c1 92.5%, CCOC(=O)c1sc2nc3c(c(-c4ccc(OC)cc4)c2c1N)CCC3 93.3%, Cc1noc2ncnc(NCCN(C)C3CCCCC3)c12 108%, CN(Cc1ccccc1)S(=O)(=O)c1ccc(C(=O)Nc2cc(C(F)(F)F)ccc2Cl)cc1 127%, O=C(NCc1ccc(F)cc1)C1CCN(c2ccc3nnc(-c4ccccc4Cl)n3n2)CC1 18.6%, COc1ccc(C)cc1NC(=O)N1CCC(c2nnc(C(=O)Nc3cccc(F)c3)s2)CC1 112%, CCCCOc1ccc(C(=O)CSc2nc3c([nH]2)c(=O)n(C)c(=O)n3C)cc1 98.6%, CCOC(=O)c1c(NC(=O)c2ccc(N(C)C)cc2)sc2c1CC(C)(C)NC2(C)C 89.5%, COc1cccc(NC(=O)NNC(=O)c2ccc3c(c2)NC(=O)C(C)(C)O3)c1 119%, COc1ccccc1CNS(=O)(=O)c1cc(-c2ccno2)oc1C 57.8%, Cc1ccc(Cc2cnc(NC(=O)C3Cc4ccc(C)cc4C(=O)O3)s2)cc1 (configuration not stated) 101%, C=CCNc1nnc(SCC(=O)Nc2ccccc2F)c2ccccc12 76.7%, O=C(O)CC1C(=O)NCCN1Cc1ccc2ccccc2c1 (configuration not stated) 85.6%, COc1cccc2c(=O)cc(C)n(CC(=O)NCc3ccccc3)c12 25.9%, N#Cc1ccccc1Cn1c(=O)n(CC(=O)NCc2ccccc2Cl)c(=O)c2sccc21 15.1%, N#C/C(=C/c1ccc(O)c([N+](=O)[O-])c1)c1nc(-c2ccc([N+](=O)[O-])cc2)cs1 106%, COC(=O)c1ccc(CSc2nc(N)cc(=O)[nH]2)cc1 99.3%, CCOC(=O)Cc1csc(NC(=O)CSc2nnc3ccccn23)n1 107%, Cc1[nH]c2ccccc2c1SCC(=O)Nc1ccc(F)cc1 83.8%, Cc1nc(N2CCC(C(=O)NCCc3ccc(S(N)(=O)=O)cc3)CC2)c2c(C)c(C)oc2n1 122%, CCOc1ccc(-c2nc3c(c(=O)[nH]2)Cc2cc(Cl)ccc2O3)cc1 115%, CCOc1ccc(N2C(=O)c3ccccc3C2C(=O)NCCC(C)C)cc1 (configuration not stated) 82.8%, COc1ccc(-c2cnc(NC(=O)NC(C)C)n2C)cc1 120%, CCOC(=O)c1ccccc1NC(=O)CSc1ccnc2c1c(=O)n(C)c(=O)n2C 123%, Cc1nc2c3ccccc3n(CC(=O)Nc3ccc4c(c3)OCO4)c(=O)n2n1 108%, O=C1Oc2ccccc2C(=O)/C1=C/Nc1cccc(Cl)c1 70.1%, Cc1cc(C)c2cc(C)c3nnc(SCC(=O)Nc4nnc(C)s4)n3c2c1 114%, COc1ccccc1-c1noc(-c2ccc[nH]c2=O)n1 115%, Cc1ccc2nc(NC(=O)c3ccc(-c4nc5ccccc5s4)s3)sc2c1 98.8%, CC(C)(CCl)C(=O)Nc1c(C(N)=O)oc2ccccc12 101%, COc1cccc(Nc2nc(NCc3ccc(C)cc3)nc3c2cnn3C)c1 122%, COc1ccc(OC)c(Nc2nc(NCc3ccco3)nc(N)c2[N+](=O)[O-])c1 45.6%, Cc1cc2nc(NC(=O)/C=C/c3cccc([N+](=O)[O-])c3)sc2cc1C 134%, O=C(O)/C=C\C(=O)NNC(=O)CSc1nc2ccccc2[nH]1 96.4%, O=C(CSc1nc(=O)n2ccccc2n1)Nc1ccc2c(c1)OCO2 81.6%, CCOc1ccc2[nH]c(=O)c(CN(CCO)C(=O)Nc3ccc(C)cc3)cc2c1 70.2%, Cc1cc(C)n2ncc(C(=O)N3CCN(c4ccccn4)CC3)c2n1 113%, CCNS(=O)(=O)c1cc(-c2cc(C(=O)NC3CCCCC3)n[nH]2)ccc1OC 68.1%, Cc1ccc(-c2nc3ncccn3c2NC(=O)c2cc3ccccc3oc2=O)cc1 96.6%, Cc1cccc(C(=O)Nc2sc3c(c2C(N)=O)CC(C)CC3)c1 (configuration not stated) 98.8%, COc1ccccc1C(CNC(=O)c1cc(-c2ccccc2)on1)N1CCC(C)CC1 (configuration not stated) 114%, CCOc1ccc(NC(=O)CC2SC(=N)NC2=O)c([N+](=O)[O-])c1 (configuration not stated) 118%, CCCc1cc(O)nc(SCC(=O)N2CCc3ccccc3C2)n1 92.3%, CCCn1ncc(C)c1NC(=O)Cn1nc2n(C)c3ccccc3n2c1=O 57.5%, COc1ccccc1CNC(=O)C(C)n1nc(-c2cc(C)oc2C)cc(N)c1=O (configuration not stated) 88.2%, COc1ccc(C(=O)c2sc3nc4c(cc3c2N)C(=O)CCC4)cc1 98.3%, CCNC(=S)NCCCNc1nc2c(C)cccc2cc1C#N 98.5%, Cc1onc(-c2ccncc2)c1C(=O)N(C)Cc1nc2cc(Cl)ccc2[nH]1 124%, COc1ccc(CCN2C(=O)C3N=NN(c4ccccc4)C3C2=O)cc1OC (configuration not stated) 82.1%, COC(=O)c1c(NC(=O)CC2Sc3ccccc3NC2=O)sc(C)c1C (configuration not stated) 108%, O=C(Nc1cccc(-c2ccc3nncn3n2)c1)c1ccc(Cl)nc1 123%, CC(CCc1ccccc1)NC(=O)C1CCCN(c2nccnc2Oc2ccccc2)C1 (configuration not stated) 47%, CCOc1ccc2cc(C#N)c(SCC(=O)NCCc3ccccc3)nc2c1 91.9%, COc1ccc(NC(=O)N2CCC(c3nc4ccccc4o3)CC2)cc1 92.3%, CCN(CCCNC(=O)c1c(-c2ccccc2)nnc2ccc(C)cc12)c1ccccc1 83.9%, CCc1ccc(CNC(=O)c2cc3c(=O)n(Cc4cccnc4)ccc3nc2C)cc1 78%, CCN(CC)S(=O)(=O)c1ccc2c3c(cccc13)C(=O)N2C(=O)c1ccncc1 113%, CN1C(=O)N(CC(=O)NCc2ccccc2F)c2cccnc2N1C 102%, CC(C)CC(=O)N1CCC(c2nnc(C(=O)Nc3cccc(Cl)c3)s2)CC1 89.9%, Cc1ccc(S(=O)(=O)NCCNc2nc3c(C)cc(C)cc3cc2C#N)cc1 98%, C#CCn1/c(=N/C(=O)COc2ccc(Cl)cc2Cl)sc2cc(S(N)(=O)=O)ccc21 77.1%, Cc1ccccc1Cn1cc(S(=O)(=O)c2ccc(F)cc2)c(=O)c2cc3c(cc21)OCO3 68.7%, Cc1ccc(C)c(S(=O)(=O)N2CCCC2CNC(=O)C(=O)NCc2cccnc2)c1 (configuration not stated) 113%, O=C(c1cc(-c2cccs2)on1)N(Cc1cccc(Cl)c1)C1CCS(=O)(=O)C1 (configuration not stated) 85.7%, CC(=O)c1c2c3c(cccc3[nH]c1=O)C(=O)c1ccccc1-2 125%, CCOC(=O)c1ccc(Oc2ncnc3sc4c(c23)CCCCC4)cc1 52.9%, Cc1ccc2ncc(NC(=O)N3CCn4cnnc4C3)c(O)c2c1 120%, O=C(O)c1nc(N2CCCCC2)c2c(-c3ccccc3F)noc2n1 106%, COc1cc(C(=O)Nc2nc3c(ccc4ccccc43)s2)cc(OC)c1OC 71.3%, O=C(Nc1nc2c(s1)CCC2)c1cccc(NS(=O)(=O)c2ccc(F)cc2)c1 109%, Cc1ccc(C(=O)c2sc3nc(C)c(C)c(C)c3c2N)cc1 78%, CCOC(=O)CC(NC(=O)NCc1ccnc(N2CCSCC2)c1)c1ccccc1 (configuration not stated) 59.9%, COc1cc(Cl)c(NS(=O)(=O)c2cc(-c3cc(C)no3)cs2)c(OC)c1 81%, O=C1COc2ccc(S(=O)(=O)N3CCC(NC(=O)C4CCCC4)CC3)cc2N1 126%, Cc1nnc(NC(=O)c2ccccc2C(F)(F)F)s1 97.8%, Brc1ccc(-c2csc3ncnc(N4CCCCC4)c23)cc1 85.2%, CCOC(=O)c1ccccc1Nc1nc(C)nc2c1CCC2 94.5%, O=c1cc(CO)oc(C(Nc2ccccn2)c2cccc(F)c2)c1O (configuration not stated) 95.5%, COc1cccc2sc(NC(=O)c3ccc(N4C(=O)CCC4=O)cc3)nc12 66.3%, NC(=O)c1c(NC(=O)C2=COCCO2)sc2c1CCCCC2 69.7%, COc1cc2cc(C#N)c(SCC(=O)NCc3ccco3)nc2cc1OC 99.4%, Cn1c(=O)c2c(nc(SCCN3CCCCC3)n2Cc2ccc(Cl)cc2)n(C)c1=O 80.9%
